PubChem BioAssay AID1259308 – NCATS | 2017
In all, the deposit lists about 59,000 reagents; below is an unselected part. Of all reagents, about 1,510 (2.6%) are marked active. 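Calls use total luciferase alone and ignore viability, so some active siRNAs may act by altering cell number.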 A number with no mark means an inactive call. Reagents against one gene are numbered here.

Aim: 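Genes whose loss raises luciferase production in HEK293 cells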 (primary screen)
System: human HEK293 embryonic kidney cells stably expressing firefly luciferase (HEK-CMV-Luc2-Hygro)
Reagents: single siRNA against human genes, 0.8 pmol siRNA per well
Duration: 72 h
Measurement: 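Reporter luminescence and viable-cell signal on separate replicate plates, given as percent of non-targeting control and median/MAD z-scores, plus per-cell luciferase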
Reading the numbers: total luciferase, z-score and total luciferase, % of control: higher = more reporter protein produced; luciferase per cell, z-score: higher = more reporter output per viable cell; viable cells, % of control: higher = more viable cells
Rule for the call: 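An siRNA counts as active if its total luciferase robust z-score exceeds 3; genes with two or more such siRNAs out of three were retested with fresh siRNAs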
Calls: active = raised luciferase; inactive = no rise

| gene | reagent no. | total luciferase, z-score | total luciferase, % of control | luciferase per cell, z-score | viable cells, % of control |
| --- | --- | --- | --- | --- | --- |
| PSMA2 (GeneID 5683) | 1 | -0.54 | 71.2 | -0.0574 | 80.7 |
| PSMA2 (GeneID 5683) | 2 | -0.292 | 76.1 | 1 | 65.3 |
| PSMA2 (GeneID 5683) | 3 | 1.09 | 104 | 1.42 | 79.6 |
| TNFRSF11A (GeneID 8792) | 1 | -0.0189 | 81.5 | -0.588 | 106 |
| TNFRSF11A (GeneID 8792) | 2 | -1.96 | 42.9 | -1.08 | 63.7 |
| TNFRSF11A (GeneID 8792) | 3 | -0.832 | 65.3 | -0.587 | 85.2 |
| SPRR1B (GeneID 6699) | 1 | 0.0426 | 82.7 | -0.73 | 112 |
| SPRR1B (GeneID 6699) | 2 | 1.26 | 107 | 1.35 | 83.8 |
| SPRR1B (GeneID 6699) | 3 | 4.28 (active) | 167 | 1.82 | 116 |
| DMRTB1 (GeneID 63948) | 1 | 0.288 | 87.6 | 0.422 | 87.6 |
| DMRTB1 (GeneID 63948) | 2 | -0.0387 | 81.1 | -0.0221 | 91.2 |
| DMRTB1 (GeneID 63948) | 3 | -2.02 | 41.7 | -0.785 | 57.3 |
| ZNF385C (GeneID 201181) | 1 | -1.1 | 60.1 | -0.0512 | 68 |
| ZNF385C (GeneID 201181) | 2 | -0.463 | 72.7 | -0.57 | 94.4 |
| ZNF385C (GeneID 201181) | 3 | 1.5 | 112 | 1.22 | 90.4 |
| OR6C65 (GeneID 403282) | 1 | 0.866 | 99.1 | 1.08 | 83.4 |
| OR6C65 (GeneID 403282) | 2 | -0.878 | 64.4 | 0.0134 | 71.7 |
| OR6C65 (GeneID 403282) | 3 | 0.326 | 88.4 | -0.819 | 123 |
| ZSCAN5DP (GeneID 646698) | 1 | 0.818 | 98.2 | 0.444 | 97.6 |
| ZSCAN5DP (GeneID 646698) | 2 | -0.597 | 70 | -0.308 | 84.9 |
| ZSCAN5DP (GeneID 646698) | 3 | 1.43 | 110 | 1.08 | 92.8 |
| BCAR1 (GeneID 9564) | 1 | 0.686 | 95.5 | 0.583 | 91.6 |
| BCAR1 (GeneID 9564) | 2 | -0.374 | 74.5 | 1.3 | 59.1 |
| BCAR1 (GeneID 9564) | 3 | -0.874 | 64.5 | -0.995 | 93.7 |
| ASB17 (GeneID 127247) | 1 | -2.01 | 42 | -2.14 | 82.5 |
| ASB17 (GeneID 127247) | 2 | -0.762 | 66.7 | 1.19 | 54.5 |
| ASB17 (GeneID 127247) | 3 | -0.265 | 76.6 | 0.294 | 79.2 |
| SIM2 (GeneID 6493) | 1 | -1.25 | 56.9 | -1.51 | 94.6 |
| SIM2 (GeneID 6493) | 2 | 0.0246 | 82.4 | -0.315 | 100 |
| SIM2 (GeneID 6493) | 3 | -1.08 | 60.5 | -1.34 | 96.1 |
| GDF5 (GeneID 8200) | 1 | -0.644 | 69.1 | -1.26 | 107 |
| GDF5 (GeneID 8200) | 2 | 0.0273 | 82.4 | -0.546 | 106 |
| GDF5 (GeneID 8200) | 3 | 0.262 | 87.1 | -0.188 | 102 |
| ZNF132 (GeneID 7691) | 1 | 1.5 | 112 | 1.21 | 90.7 |
| ZNF132 (GeneID 7691) | 2 | -0.295 | 76 | -0.316 | 92.3 |
| ZNF132 (GeneID 7691) | 3 | 0.556 | 93 | 0.743 | 85.4 |
| TMUB2 (GeneID 79089) | 1 | -0.673 | 68.5 | -0.51 | 87.5 |
| TMUB2 (GeneID 79089) | 2 | -0.905 | 63.9 | -1.2 | 97.8 |
| TMUB2 (GeneID 79089) | 3 | 1.06 | 103 | 1.71 | 73.3 |
| ARFIP2 (GeneID 23647) | 1 | -0.328 | 75.4 | -0.163 | 87.9 |
| ARFIP2 (GeneID 23647) | 2 | 0.498 | 91.8 | 0.464 | 90.8 |
| ARFIP2 (GeneID 23647) | 3 | -0.834 | 65.3 | -1.66 | 113 |
| LILRB1 (GeneID 10859) | 1 | -1.26 | 56.8 | -1.58 | 96.2 |
| LILRB1 (GeneID 10859) | 2 | -0.771 | 66.6 | -1.13 | 100 |
| LILRB1 (GeneID 10859) | 3 | 3.41 (active) | 150 | 2.26 | 92.4 |
| FSCN2 (GeneID 25794) | 1 | -0.747 | 67 | -0.187 | 78.7 |
| FSCN2 (GeneID 25794) | 2 | -0.253 | 76.8 | -0.428 | 96.1 |
| FSCN2 (GeneID 25794) | 3 | 0.0376 | 82.6 | 0.353 | 84.1 |
| SLC2A8 (GeneID 29988) | 1 | -0.204 | 77.8 | -0.203 | 91.7 |
| SLC2A8 (GeneID 29988) | 2 | 1.16 | 105 | 0.744 | 96.5 |
| SLC2A8 (GeneID 29988) | 3 | -1.69 | 48.2 | -1.82 | 87.1 |
| GLTP (GeneID 51228) | 1 | -1.07 | 60.6 | -1.99 | 115 |
| GLTP (GeneID 51228) | 2 | 0.274 | 87.3 | 0.184 | 93 |
| GLTP (GeneID 51228) | 3 | -0.265 | 76.6 | -0.625 | 101 |
| GSTT1 (GeneID 2952) | 1 | 1.1 | 104 | 1.8 | 72.2 |
| GSTT1 (GeneID 2952) | 2 | -0.68 | 68.4 | -1.83 | 124 |
| GSTT1 (GeneID 2952) | 3 | 1.12 | 104 | 0.314 | 107 |

A run of entries of the results above, for reference:
| gene | reagent no. | total luciferase, z-score | total luciferase, % of control | luciferase per cell, z-score | viable cells, % of control |
| --- | --- | --- | --- | --- | --- |
| OR6C65 (GeneID 403282) | 3 | 0.326 | 88.4 | -0.819 | 123 |
| ZSCAN5DP (GeneID 646698) | 1 | 0.818 | 98.2 | 0.444 | 97.6 |
| ZSCAN5DP (GeneID 646698) | 2 | -0.597 | 70 | -0.308 | 84.9 |
| ZSCAN5DP (GeneID 646698) | 3 | 1.43 | 110 | 1.08 | 92.8 |
| BCAR1 (GeneID 9564) | 1 | 0.686 | 95.5 | 0.583 | 91.6 |
| BCAR1 (GeneID 9564) | 2 | -0.374 | 74.5 | 1.3 | 59.1 |
| BCAR1 (GeneID 9564) | 3 | -0.874 | 64.5 | -0.995 | 93.7 |
| ASB17 (GeneID 127247) | 1 | -2.01 | 42 | -2.14 | 82.5 |
